This note sets out measurements from patent EP4353258A1.

Positions count from the first letter of the chain named. Results are given in words; binding and its absence hold for the method and conditions named. Some entries that bind do so weakly or less than the wild type.

The target of the experiment is T1, CD206 antigen (prepared by the Department of Molecular Neuroscience, University of Toyama), immobilized on an ELISA plate (mouse) (UniProt Q61830).
T1 sequence (looked up): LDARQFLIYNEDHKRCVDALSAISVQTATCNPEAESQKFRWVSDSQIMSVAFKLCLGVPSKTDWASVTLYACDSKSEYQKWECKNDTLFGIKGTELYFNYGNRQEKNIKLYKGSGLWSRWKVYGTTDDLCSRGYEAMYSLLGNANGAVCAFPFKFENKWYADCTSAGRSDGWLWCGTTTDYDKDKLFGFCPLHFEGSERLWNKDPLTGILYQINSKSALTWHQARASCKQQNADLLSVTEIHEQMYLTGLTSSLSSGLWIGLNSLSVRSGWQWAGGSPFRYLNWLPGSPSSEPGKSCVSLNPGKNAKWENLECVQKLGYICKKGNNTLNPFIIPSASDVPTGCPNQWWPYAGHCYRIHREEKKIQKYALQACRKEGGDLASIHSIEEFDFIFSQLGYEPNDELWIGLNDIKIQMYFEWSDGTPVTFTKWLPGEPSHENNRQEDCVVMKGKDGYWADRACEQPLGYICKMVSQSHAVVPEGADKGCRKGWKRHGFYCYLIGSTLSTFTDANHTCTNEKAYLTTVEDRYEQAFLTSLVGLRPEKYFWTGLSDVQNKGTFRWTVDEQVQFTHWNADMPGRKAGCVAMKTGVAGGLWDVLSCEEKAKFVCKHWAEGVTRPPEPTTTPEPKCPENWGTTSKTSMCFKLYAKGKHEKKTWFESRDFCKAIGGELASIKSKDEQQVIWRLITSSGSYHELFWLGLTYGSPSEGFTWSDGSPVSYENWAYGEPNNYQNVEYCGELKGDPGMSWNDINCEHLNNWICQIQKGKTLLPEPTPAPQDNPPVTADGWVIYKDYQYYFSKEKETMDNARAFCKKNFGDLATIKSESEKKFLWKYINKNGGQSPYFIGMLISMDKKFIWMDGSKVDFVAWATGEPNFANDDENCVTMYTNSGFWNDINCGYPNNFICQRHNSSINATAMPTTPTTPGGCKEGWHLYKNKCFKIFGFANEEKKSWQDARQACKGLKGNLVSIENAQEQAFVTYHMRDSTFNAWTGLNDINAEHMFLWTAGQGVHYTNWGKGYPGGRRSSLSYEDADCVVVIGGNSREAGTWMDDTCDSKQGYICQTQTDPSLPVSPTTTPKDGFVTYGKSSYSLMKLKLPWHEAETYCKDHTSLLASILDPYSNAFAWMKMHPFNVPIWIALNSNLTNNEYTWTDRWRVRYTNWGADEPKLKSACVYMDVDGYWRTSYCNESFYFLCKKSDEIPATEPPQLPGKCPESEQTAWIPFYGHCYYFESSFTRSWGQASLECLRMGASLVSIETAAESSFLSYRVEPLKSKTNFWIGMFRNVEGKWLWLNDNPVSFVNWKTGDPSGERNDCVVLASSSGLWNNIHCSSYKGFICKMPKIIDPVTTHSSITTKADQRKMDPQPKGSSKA
As to the kind of experiment: ELISA, CD206 antigen immobilized on plate.

B1: anti-CD206 antibody (No. 27) (antibody, V domains shown)
VH: QVQLQQPGAELVKPRASVKLSCRASGYIFISYWMQWVKQRPGQGLEWIGEIDPSDSYINYNQKFKGKASLTVDTSSNTAYMQLSSLTSEDSAVYYCATGDMGDDFYAMDYWGQGTSVTVSS
VL: DIVMNQDELSNPVTSGESVSISCRSSKSLLYKDGKTYLNWFLQRPGQSPQLLIYLMSTRASGVSDRFSGSGSGTDFTLEISRVKAEDVGVYYCQQLVEYPFTFGGGTKLEIK
On to B1, for which the binding entry is “binds”.

B2: anti-CD206 antibody (No. 44) (antibody, V domains shown)
VH: QVQLQQSGAELVRPGTSVKVSCKASGYAFTDYLIEWVKQRPGQGLEWIGVINPGRGGTNYNEKFKGKATLTADKSSSTAYMQLSSLTSEDSAVYFCARYYGRSFGYFDVWGTGTTVTVSS
VL: DIQMTQSPASQSASLGESVTITCLASQTIGTWLAWYQQKPGKSPQLLIYAATSLADGVPSRFSGSGSGTKFSFKISSLQAEDFVSYYCQQLYSPPLTFGAGTKLELK
B2: the binding entry is reported as “binds”.

B3: anti-CD206 antibody (No. 35) (antibody, V domains shown)
VH: QVQLQQPGAELVKPGASVKVSCKASGYTFTTYWMHWVKQRPGQGLEWIGRIHPSDSDSNYNQKFKGKATLTVDKSSSTAYMQLSSLTSEDSAVYYCAIGRGFAYWGQGTLVTVSA
VL: DIVLTQSPASLAVSLGQRAAISCRASESVDNYGNSFMHWYQQKPGQPPKLLIYRASNLESGIPARFSGSGSRTDFTLTINPVEADDVATYYCQQGNEDPYTFGGGTKLEIK
Take B3: the binding result is “binds”.

B4: anti-CD206 antibody (No. 54) (antibody, V domains shown)
VH: EVQLVESGGGLVQPKGSLKLSCAASGFSFNTYTMNWVRQAPGKGLEWVARIRSKSNNYETYYADSVKDRFTISRDDSESMLYLQMNNLKTEDTAMYYCVSPDSDSWFAYWGQGTLVTVSA
VL: DIQMNQSPSSLSASLGDTITIACHASQNINVWLSWYQQKPGNIPKLLIYKASNLHTGVPSRFSGSGSGTGFTLTISSLQPEDIATYYCQQGQSYPLTFGGGTKLEIK
Take B4: the binding entry is “binds”.

B5: anti-CD206 antibody (No. 10) (antibody, V domains shown)
VH: QVQLQQPGAELVRPGSSVKLSCKASGYTFISYWMDWVKQRPGQGLEWIGNIFPSDSETHYNQKFRDKATLTVDKSSSTASIHLSSLTSEDSAVYYCGRRDSSGWIDYWGQGTTLTVSS
VL: DIQMTQTTSSLSASLGDRVTISCRASQDISNYLNWYQQKPDGTVKLLIYYTSRFHSGVPSRFSGSGSGTDYSLTIHNVEQEDIATYFCQQSSMLPFTFGSGTKLEMK
As to B5, the binding result is recorded as “binds”.

B6: anti-CD206 antibody (No. 47) (antibody, V domains shown)
VH: B5 VH with I30T, F52Y, R65K, K67R, S77T, S80Y, I81M, H82Q, G97T
VL: B5 VL with F54L, S65R, H76S, V78L, S91G, S92N, M93T, K103Q, M106I
With B6, the binding result is on record as “binds”.

B7: anti-CD206 antibody (No. 72) (antibody, V domains shown)
VH: QVQLQQPGAELVRPGSSVKLSCKASGYTFTTYWMHWVKQRPIQGLEWIGNIDPSDSETHYNQKFKDKATLTVDKSSSTAYMQLNSLTSEDSAVYYCARGDGYYVYFAYWGQGTTLTVSS
VL: EIVLTQSPALMAASPGEKVTITCSVSSSISSSNLHWYQQKSETSPKPWIYATSNLASGVPVRFSGSGSGTSYSLTISSMAAEDAATYFCQQWSSFPLTFGAGTKLELK
On to B7, for which the binding result is reported as “binds”.

B8: anti-CD206 antibody (No. 83) (antibody, V domains shown)
VH: QVQLLQSGAELVRPGTAVKMSCKASEYTFTNYWIGWARQRPGHGLEWIGDIYPGGGYINYNEKFKGKATLTADKSSSTVYMQFSSLTSEDSAIYYCARGGSNYVGHFDYWGQGTTLTVSS
VL: DIQMTQTTSSLSASLGDRVTISCRASQDISNYLNWYQQKPDGTVKLLIYYTSILHSRVPSRFSGSGSGTDYSLTISNLEQEDIATYFCQHGHTLPWTFGGGTKLEIK
Turning to B8, the binding entry is listed as “binds”.
